Data taken from PMC7864068, “α2-Macroglobulin-like protein 1 can conjugate and inhibit proteases through their hydroxyl groups, because of an enhanced reactivity of its thiol ester” (The Journal of Biological Chemistry, 2021).
These are yes or no findings as the source states them, for the method shown. Binding calls can cover weak binding; strength is not graded here.

By UniProt entry, the sequences of proteins in these tests, tags left out. Where a name states a change or a piece, a line headed by the entry shows the natural chain unless it says otherwise.
UniProt P08246: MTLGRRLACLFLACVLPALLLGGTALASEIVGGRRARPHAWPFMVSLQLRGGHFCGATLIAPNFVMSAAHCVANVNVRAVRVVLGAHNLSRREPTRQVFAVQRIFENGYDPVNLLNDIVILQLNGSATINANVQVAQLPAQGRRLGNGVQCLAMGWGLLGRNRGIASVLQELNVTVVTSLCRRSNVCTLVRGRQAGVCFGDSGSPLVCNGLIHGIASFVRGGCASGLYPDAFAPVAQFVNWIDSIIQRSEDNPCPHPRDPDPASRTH

Molecular target: Human neutrophil elastase (HNE) (human) (UniProt P08246)
Assay: reducing SDS-PAGE of covalent conjugation products + Edman degradation and LC-MS/MS of bands; A2ML1 digested with HNE, CatG (up to 1:1 molar ratio protease:A2ML1, HBS with and without 50 mM BAPN, 15 min 37°C, stopped with 2 mM PMSF) or GluC (conditions not told); Fig. S2; both purified

binding: binds
B1: Human α2-macroglobulin-like protein 1 (A2ML1), recombinant wild type (natural protein, UniProt A8K2U0-1 18-1454, looked up)
chain: EELPNYLVTLPARLNFPSVQKVCLDLSPGYSDVKFTVTLETKDKTQKLLEYSGLKKRHLHCISFLVPPPAGGTEEVATIRVSGVGNNISFEEKKKVLIQRQGNGTFVQTDKPLYTPGQQVYFRIVTMDSNFVPVNDKYSMVELQDPNSNRIAQWLEVVPEQGIVDLSFQLAPEAMLGTYTVAVAEGKTFGTFSVEEYVLPKFKVEVVEPKELSTVQESFLVKICCRYTYGKPMLGAVQVSVCQKANTYWYREVEREQLPDKCRNLSGQTDKTGCFSAPVDMATFDLIGYAYSHQINIVATVVEEGTGVEANATQNIYISPQMGSMTFEDTSNFYHPNFPFSGKIRVRGHDDSFLKNHLVFLVIYGTNGTFNQTLVTDNNGLAPFTLETSGWNGTDVSLEGKFQMEDLVYNPEQVPRYYQNAYLHLRPFYSTTRSFLGIHRLNGPLKCGQPQEVLVDYYIDPADASPDQEISFSYYLIGKGSLVMEGQKHLNSKKKGLKASFSLSLTFTSRLAPDPSLVIYAIFPSGGVVADKIQFSVEMCFDNQVSLGFSPSQQLPGAEVELQLQAAPGSLCALRAVDESVLLLRPDRELSNRSVYGMFPFWYGHYPYQVAEYDQCPVSGPWDFPQPLIDPMPQGHSSQRSIIWRPSFSEGTDLFSFFRDVGLKILSNAKIKKPVDCSHRSPEYSTAMGAGGGHPEAFESSTPLHQAEDSQVRQYFPETWLWDLFPIGNSGKEAVHVTVPDAITEWKAMSFCTSQSRGFGLSPTVGLTAFKPFFVDLTLPYSVVRGESFRLTATIFNYLKDCIRVQTDLAKSHEYQLESWADSQTSSCLCADDAKTHHWNITAVKLGHINFTISTKILDSNEPCGGQKGFVPQKGRSDTLIKPVLVKPEGVLVEKTHSSLLCPKGKVASESVSLELPVDIVPDSTKAYVTVLGDIMGTALQNLDGLVQMPSGCGEQNMVLFAPIIYVLQYLEKAGLLTEEIRSRAVGFLEIGYQKELMYKHSNGSYSAFGERDGNGNTWLTAFVTKCFGQAQKFIFIDPKNIQDALKWMAGNQLPSGCYANVGNLLHTAMKGGVDDEVSLTAYVTAALLEMGKDVDDPMVSQGLRCLKNSATSTTNLYTQALLAYIFSLAGEMDIRNILLKQLDQQAIISGESIYWSQKPTPSSNASPWSEPAAVDVELTAYALLAQLTKPSLTQKEIAKATSIVAWLAKQHNAYGGFSSTQDTVVALQALAKYATTAYMPSEEINLVVKSTENFQRTFNIQSVNRLVFQQDTLPNVPGMYTLEASGQGCVYVQTVLRYNILPPTNMKTFSLSVEIGKARCEQPTSPRSLTLTIHTSYVGSRSSSNMAIVEVKMLSGFSPMEGTNQLLLQQPLVKKVEFGTDTLNIYLDELIKNTQTYTFTISQSVLVTNLKPATIKVYDYYLPDEQATIQYSDPCE
modifications: internal thiol ester in which Gln-973 participates
